Values quoted from earlier work as cited in patent US7772209B2, “Antifolate combination therapies” (Eli Lilly and Company, priority 2000, dated 2010).
Some of these results come from one statement about several compounds together.

System: folate binding protein
Settings: (6R)- vs (6S)-isomer; cited from earlier work

Nc1nc2c(c(=O)[nH]1)N(C=O)[C@H](CNc1ccc(C(=O)N[C@@H](CCC(=O)O)C(=O)O)cc1)CN2 [(6R)-5-formyl-5,6,7,8-tetrahydrofolic acid]
Efficiency in binding the folate binding protein compared with respective (6S)-isomer: 10-20 fold
